The text below walks through data of PubChem BioAssay AID2685 (National Center for Advancing Translational Sciences (NCATS), 2010).

The nature of this test: qHTS Assay for Lipid Storage Modulators in Drosophila S3 Cells.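 As to cell number change: cells counted by Cell Tracker Red CMTPX staining in the red channel.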 Conditions: BODIPY lipid droplet fluorescence, 18-24 h; for cell number change: measured here: cell count max response, cells fed with added oleic acid. The gist of the method:
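Drosophila S3 cells got compounds at several concentrations plus oleic acid (400 uM solution). Laser-scanning cytometry with 488 nm excitation read lipid droplets at 500-530 nm and cells at 575-640 nm. Percent activity was relative to 20 uM Triacsin C.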

Where [1] appears, read: measured here: lipid fluorescence (Fed channel) AC50, cells fed with added oleic acid.
[2] abbreviates: measured here: cell number channel AC50, cells fed with added oleic acid.

This is one part of the list. Further columns of the screen follow, without active or inactive calls. The list favours compounds with an active or inconclusive main result. Potencies come from curve fits of mixed quality, noted in brackets.

In the case of `CCOC(=O)N1CCN(c2c(NCCCN(CC)Cc3ccccc3)c(=O)c2=O)CC1`, the cell number change stood at 5.09%. Besides, the AC50 under setting [1] was 0.00651 µM [rising, full curve, poor fit].

`N#CCC(=O)Nc1ccc(C(=O)OCC(=O)c2ccc3c(c2)OCCO3)cc1`: the cell number change was -30.9%. Besides, the AC50 under setting [2] is 0.00461 µM [falling, full curve, poor fit].

`O=C(c1ccccc1)c1ncc(C(F)(F)F)cc1Cl`: under setting [1], the concentration at half-maximal activity (AC50) is 1.03 µM [rising, full curve].

On to `CN1CCN(C(=O)c2ccc(-c3ccccc3)cc2)CC1`, for which the cell number change is -5.25%.

With `CCOc1ccccc1-n1c(=S)sc2c(=O)n(-c3ccc(C)cc3)c(=S)[nH]c21`, the cell number change came out at 14.9%. Also, under setting [2], the AC50 was 4.11 µM [falling, single point]. Further, the AC50 under setting [1] is 5.17 µM [falling, single point].

In the case of `Nc1nc(COC(=O)CCC(=O)c2ccccc2)nc(Nc2ccccc2)n1`, the cell number change was -13.1%.

Consider `CCC(C)(C(=O)NC1CCCCC1)N(C(=O)CNC(C)=O)c1c(C)n(C)n(-c2ccccc2)c1=O` (stereo unspecified), for which the cell number change is -35.5%. Besides, the AC50 under setting [2] was 0.206 µM [falling, full curve, poor fit]. The AC50 under setting [1] was 0.206 µM [falling, full curve, poor fit].

Turning to `COc1ccc(N2C(=O)NC(NC(=O)c3cccnc3)(C(F)(F)F)C2=O)cc1` (stereo unspecified), the cell number change was -14.6%. Also, the AC50 under setting [1] was 1.84 µM [falling, partial curve, poor fit].

As to `C/C(=N\Nc1ccc(S(=O)(=O)Nc2ccc(Cl)cc2)cc1[N+](=O)[O-])c1ccc(N2CCOCC2)cc1`, the cell number change is -46.5%. The AC50 under setting [2] is 0.231 µM [falling, full curve]. Besides, the AC50 under setting [1] is 2.31 µM [falling, full curve].

With `CS(=O)(=O)N1CCN(c2ccc([N+](=O)[O-])c3cccnc23)CC1`, the AC50 under setting [2] is 6.51 µM [rising, single point] and the AC50 under setting [1] was 6.51 µM [rising, single point].

`Cc1ccc(OCC(=O)NCCNC(=O)COc2ccc(C)cc2)cc1`: the cell number change worked out at 19.7%. The AC50 under setting [2] was 2.06 µM [rising, partial curve].

For `CC1(C)C2CCC1(CS(=O)(=O)N1CCC(C(=O)O)CC1)C(=O)C2` (stereo unspecified), the cell number change is 10.4%. Besides, the AC50 under setting [2] is 1.03 µM [falling, full curve, poor fit]. Besides, under setting [1], the AC50 was 4.11 µM [falling, single point].

As to `CCOC(=O)c1ccccc1-n1c(C)cc(C2N=C(N)Nc3nc4ccccc4n32)c1C` (stereo unspecified), the cell number change was -42.9%. Moreover, the AC50 under setting [2] is 20.6 µM [falling, single point].

For `Cc1ccc(-c2cc(-c3ccccc3)no2)cc1`, the cell number change was determined as 16.2%. The AC50 under setting [1] was 0.00461 µM [falling, full curve, poor fit].

Turning to `COc1ccc(-c2csc(N3CCN(S(=O)(=O)c4ccc5c(c4)NC(=O)CO5)CC3)n2)cc1`, the cell number change worked out at 18.6%. The half-maximal activity concentration (AC50) under setting [1] was 20.6 µM [rising, partial curve].

Turning to `CC(=O)c1ccc(S(=O)(=O)NCCC(=O)OCC(=O)NCCc2ccccc2)cc1`, the AC50 under setting [1] was 9.2 µM [rising, partial curve].

For the compound `CC1CC(c2ccccc2)=Nc2ccccc2N1` (stereo unspecified), the half-maximal activity concentration (AC50) under setting [1] is 3.66 µM [falling, partial curve, poor fit].

In the case of `CCN(Cc1cccs1)C(=O)CN1C(=O)NC(c2ccccc2)(c2ccccc2)C1=O`, the cell number change was 1.61%. Moreover, under setting [2], the half-maximal activity concentration (AC50) is 0.411 µM [rising, partial curve, poor fit].

Take `CCOC(=O)Cc1csc(SCC(=O)NC2CCCC(C)C2C)n1` (stereo unspecified): the cell number change came to 1.59%. The AC50 under setting [1] was 18.4 µM [falling, single point].

As to `CCOc1ccc(S(=O)(=O)NCCC(=O)OCN2C(=O)c3ccccc3C2=O)cc1`, the cell number change turned out to be 2.56%. In addition, the concentration at half-maximal activity (AC50) under setting [2] is 0.82 µM [falling, full curve]. In addition, the half-maximal activity concentration (AC50) under setting [1] is 5.17 µM [falling, partial curve].

For `CCOC(=O)c1cc2c(ccn2-c2ccc(F)cc2)n1CC(=O)N1CCN(C(=O)c2ccco2)CC1`, the cell number change is -5.2%.

For the compound `Cc1cc(=O)[nH]c(SCC(=O)N(CCC#N)c2ccccc2)c1C#N`, the cell number change amounted to 69.1%.

For `CCCC(C(=O)NC1CCCC1)N(Cc1ccc(F)cc1)C(=O)c1snc(C(N)=O)c1N` (stereo unspecified), the cell number change is -1.32%.

As for `CN(C)c1ccc(C(=O)c2ccc(N(C)C)c3ccccc23)cc1`, the cell number change is -16.1%. For the same compound, under setting [1], the AC50 is 1.3 µM [falling, partial curve].

Turning to `O=C(c1cc(S(=O)(=O)N2CCOCC2)ccc1Cl)N1CCOCC1`, the cell number change was determined as 1.93%. Besides, the AC50 under setting [1] is 29.1 µM [rising, single point].

Regarding `CC1=NNC(=O)/C1=C\c1cn(-c2ccccc2)nc1-c1ccc(F)cc1`, the cell number change is -65.2%. Moreover, the AC50 under setting [2] was 23.1 µM [falling, partial curve]. The half-maximal activity concentration (AC50) under setting [1] was 14.6 µM [falling, partial curve].

For `COc1cccc(CC(=O)OC(C)C(=O)Nc2ccc(Cl)cn2)c1` (stereo unspecified), the cell number change amounted to 16%.

For `CN1CCN(NC(=O)CN2C(=O)/C(=C/c3c(Cl)cccc3Cl)SC2=S)CC1`, the cell number change was -0.862%. The AC50 under setting [1] was 6.51 µM [rising, single point].

On to `CCCC(=O)Nc1ccc(C(=O)NCC(=O)OCC)cc1`, for which the cell number change is -5.2%.

With `COc1ccc(CC(=O)Oc2ccc(C)cc2Br)cc1OC`, the cell number change turned out to be 0.821%. Under setting [2], the AC50 is 0.651 µM [rising, partial curve, poor fit].

With `N#Cc1c(/N=C/c2ccco2)sc2c1CCC2`, the cell number change was determined as 3.12%. For the same compound, the AC50 under setting [1] is 0.461 µM [rising, full curve].

With `CC1Cc2cc(S(=O)(=O)NCCC(=O)N(C)Cc3ccccc3)ccc2N1C(=O)C1CC1` (stereo unspecified), the cell number change was -17%. For the same compound, the half-maximal activity concentration (AC50) under setting [1] was 0.13 µM [falling, full curve, poor fit].

For `Cc1cccc(-n2c(O)c(C=Nc3cc(O)ccc3C)c3ccccc3c2=O)n1`, the cell number change was -43.2%. Further, under setting [2], the AC50 was 0.259 µM [falling, partial curve]. Further, under setting [1], the AC50 is 9.2 µM [falling, partial curve].

On to `COc1ccc(CCNC(=O)CCC(=O)n2ncc3cc(C)ccc32)cc1OC`, for which the cell number change is -22.8%. Further, the AC50 under setting [1] was 29.1 µM [falling, partial curve].

With `CCOc1ccc(-c2nnc(NC(=O)CCCOc3cccc(C)c3)o2)cc1`, the cell number change was -53.2%. Under setting [2], the concentration at half-maximal activity (AC50) is 7.31 µM [falling, partial curve]. The AC50 under setting [1] was 4.11 µM [falling, full curve].

For the compound `CCOc1ccc(S(=O)(=O)N2CCN(Cc3ccc4c(c3)OCO4)CC2)cc1C`, the cell number change stood at 21.9%. For the same compound, under setting [2], the AC50 is 0.0058 µM [rising, full curve, poor fit].

As for `CCNC(=O)CSc1nc2ccccc2c(=O)n1OC`, the cell number change turned out to be 0.893%.

For `C=CCOc1c(Br)cc(CNn2c(C)n[nH]c2=S)cc1OCC`, the cell number change was -17.9%.

As to `CCN(C(=O)c1cc2c(=O)n3cccc(C)c3nc2n1CCCOC)C1CCCCC1`, under setting [1], the AC50 is 18.4 µM [falling, partial curve].

`CC(C)OC(=O)CSc1nnc(CNc2nc(-c3ccccc3)cs2)n1C`: the cell number change stood at 1.56%. In addition, under setting [1], the AC50 is 0.651 µM [falling, single point].

`Cc1ccccc1Nc1nc(-c2sc(NC(=O)c3cccc(Cl)c3)nc2C)cs1`: the cell number change is -42.7%. Under setting [2], the concentration at half-maximal activity (AC50) is 29.1 µM [falling, single point]. Moreover, the AC50 under setting [1] is 0.517 µM [falling, partial curve].

For the compound `CCCCc1cc(=O)oc2c(CN(C)C)c(O)ccc12`, the cell number change is -86.1%. For the same compound, the AC50 under setting [2] was 4.11 µM [falling, full curve]. The AC50 under setting [1] is 6.51 µM [falling, partial curve].

For the compound `CCN(CC)S(=O)(=O)N1CCC(C(=O)NC2CCCc3ccccc32)CC1` (stereo unspecified), the concentration at half-maximal activity (AC50) under setting [1] was 20.6 µM [falling, partial curve, poor fit].

For the compound `Cc1cc(Oc2ccccc2)nc2ccc(O)cc12`, the cell number change is -15.4%. The concentration at half-maximal activity (AC50) under setting [1] was 29.1 µM [rising, single point].

For the compound `Cc1ccc2nc(SCC(=O)N/N=C/c3ccc(C(=O)O)cc3)cc(C)c2c1`, the cell number change worked out at 9.38%.

Consider `Cc1c(C(=O)NC(=S)N(Cc2ccccc2)c2ccccn2)cccc1[N+](=O)[O-]`, for which the cell number change is -16.9%.

Regarding `COCc1nnc(NS(=O)(=O)c2ccc(NC(C)=O)cc2)s1`, the cell number change was -3.37%. The AC50 under setting [1] was 2.91 µM [rising, single point].

As to `CN(CC1CCOCC1)C(=O)CC1C(=O)NCCN1CC(c1ccccc1)c1ccccc1` (stereo unspecified), the cell number change came out at 8.17%.

For `CC(=O)Nc1ccc(S(=O)(=O)NCCC(=O)OCCN2C(=O)c3ccccc3C2=O)cc1`, the cell number change was found to be 15.9%. For the same compound, under setting [2], the half-maximal activity concentration (AC50) is 0.291 µM [rising, full curve, poor fit].

With `O=C(CCS(=O)(=O)c1ccc(Cl)cc1)Nc1nnc(-c2ccco2)o1`, the cell number change is 23.2%. In addition, the AC50 under setting [1] is 25.9 µM [falling, partial curve].

For `COc1ccc(NC(=O)CN(C)C(=O)CN2C(=O)c3ccc([N+](=O)[O-])cc3C2=O)cc1`, the cell number change was -34.1%. The half-maximal activity concentration (AC50) under setting [2] was 13 µM [falling, partial curve, poor fit]. For the same compound, the AC50 under setting [1] was 7.31 µM [falling, partial curve, poor fit].

`COC(=O)c1ccc(Cn2nnc3c(=O)[nH]c(C4CCCN(S(=O)(=O)c5ccc(C)cc5)C4)nc32)cc1` (stereo unspecified): the cell number change was 5.07%.

Take `CSc1ccc(/C=C/C(=O)N2CCCN(C)CC2)cc1`: the cell number change was -5.66%.

In the case of `N#C/C(=C/c1ccc(-c2ccc(S(N)(=O)=O)cc2)o1)c1nc2ccccc2s1`, the cell number change is -84.7%. In addition, the concentration at half-maximal activity (AC50) under setting [2] was 16.4 µM [falling, partial curve]. Further, the AC50 under setting [1] is 29.1 µM [falling, single point].

For the compound `O=C(O)c1cccc(S(=O)(=O)Nc2ccc(O)c(Sc3nc4ccccc4s3)c2)c1`, the cell number change is -22.3%.

In the case of `CN(C)/C=N/N(C)c1ncccc1[N+](=O)[O-]`, the AC50 under setting [1] is 6.51 µM [falling, single point].

For `Cc1nc2ccccc2n1CC(=O)N/N=C/c1cccnc1`, the cell number change was 12.5%. In addition, the AC50 under setting [2] is 4.61 µM [falling, single point]. For the same compound, under setting [1], the half-maximal activity concentration (AC50) is 0.0651 µM [rising, full curve, poor fit].

In the case of `COc1cc(NC(=O)C2CCCN2S(=O)(=O)c2ccc3c(c2)CCC(=O)N3)cc(OC)c1` (stereo unspecified), the cell number change was determined as 42%. In addition, under setting [2], the AC50 was 20.6 µM [rising, single point].

For the compound `Cc1nc2ccccc2n1CC(O)c1ccccc1` (stereo unspecified), the cell number change stood at 10.4%.

With `COc1ccc(-n2c(-c3ccc(OC)c(OC)c3)n[nH]c2=S)cc1`, the cell number change is 42%. Further, the AC50 under setting [2] is 29.1 µM [rising, single point].
